From patent US20130144376A1, “BIOABSORBABLE DEVICE HAVING COMPOSITE STRUCTURE FOR ACCELERATING DEGRADATION” (Cordis Corporation, priority 2006, published 2013)
At least one compound was matched to its structure with a doubt left.

Key:
neointimal hyperplasia [1] = assay: Neointimal hyperplasia after rapamycin release from drug eluting stents, porcine model; format: in vivo; conditions: 35-430 ug/15-18 mm coronary stent, maximal at about twenty-eight to thirty days, not sustained at ninety to one hundred eighty days
[2] = system: in-stent neointimal hyperplasia; assay: In-stent neointimal hyperplasia, late lumen loss and plaque volume in humans receiving rapamycin from a stent; format: in vivo, human
[3] = system: monocyte chemotactic protein (MCP-1); assay: Cytokine levels in vascular tissue after rapamycin delivery from a stent; format: in vivo; conditions: delivered from a stent
neointimal hyperplasia [4] = assay: Neointimal hyperplasia after rapamycin release from drug eluting stents, rabbit model; format: in vivo; conditions: 35-430 ug/15-18 mm coronary stent, maximal at about twenty-eight to thirty days
[5] = patients, delivered locally from a stent

CO[C@H]1C[C@@H]2CC[C@@H](C)[C@@](O)(O2)C(=O)C(=O)N2CCCC[C@H]2C(=O)O[C@H]([C@H](C)C[C@@H]2CC[C@@H](O)[C@H](OC)C2)CC(=O)[C@H](C)/C=C(\C)[C@@H](O)[C@@H](OC)C(=O)[C@H](C)C[C@H](C)/C=C/C=C/C=C/1C [rapamycin]
peak reduction in neointimal hyperplasia (neointimal hyperplasia [1]): fifty to fifty-five | reduction in in-stent neointimal hyperplasia ([2]; humans, delivered from a stent, sustained for at least one year): profound reduction | reduction in late lumen loss [2, 5]: Dramatic and sustained reductions | reduction in neointimal plaque volume [2, 5]: Dramatic and sustained reductions | reduction of MCP-1 levels in the vascular wall [3]: highly effective | peak reduction in neointimal hyperplasia (neointimal hyperplasia [4]): fifty to fifty-five
